This is an account of results in article PMC5296733, “Functional Coupling of Human Microphysiology Systems: Intestine, Liver, Kidney Proximal Tubule, Blood-Brain Barrier and Skeletal Muscle” (Scientific Reports, 2017).

In the data set the test system is vascularized proximal tubule kidney (VPTK) module. Nature of the data set: Vascularized proximal tubule kidney (VPTK) module secretion. As to conditions: terfenadine experiment, liver-conditioned media; 0-6 h.

On to `CC(C)(C(=O)O)c1ccc(C(O)CCCN2CCC(C(O)(c3ccccc3)c3ccccc3)CC2)cc1` (centres unmarked) [Fexofenadine, fexofenadine, reference compound], for which the “Concentration in kidney plasma (vascular) efflux” value was determined as 10.2 ± 3.6 ng/mL and the “Concentration in kidney proximal tubule lumen” value turned out to be 0.1 ± 0.1 ng/mL.
